From PMC6479050 come the findings set out here.

Protein sequences, listed by entry. Tags and fused reporters are not part of them.
UniProt Q92922: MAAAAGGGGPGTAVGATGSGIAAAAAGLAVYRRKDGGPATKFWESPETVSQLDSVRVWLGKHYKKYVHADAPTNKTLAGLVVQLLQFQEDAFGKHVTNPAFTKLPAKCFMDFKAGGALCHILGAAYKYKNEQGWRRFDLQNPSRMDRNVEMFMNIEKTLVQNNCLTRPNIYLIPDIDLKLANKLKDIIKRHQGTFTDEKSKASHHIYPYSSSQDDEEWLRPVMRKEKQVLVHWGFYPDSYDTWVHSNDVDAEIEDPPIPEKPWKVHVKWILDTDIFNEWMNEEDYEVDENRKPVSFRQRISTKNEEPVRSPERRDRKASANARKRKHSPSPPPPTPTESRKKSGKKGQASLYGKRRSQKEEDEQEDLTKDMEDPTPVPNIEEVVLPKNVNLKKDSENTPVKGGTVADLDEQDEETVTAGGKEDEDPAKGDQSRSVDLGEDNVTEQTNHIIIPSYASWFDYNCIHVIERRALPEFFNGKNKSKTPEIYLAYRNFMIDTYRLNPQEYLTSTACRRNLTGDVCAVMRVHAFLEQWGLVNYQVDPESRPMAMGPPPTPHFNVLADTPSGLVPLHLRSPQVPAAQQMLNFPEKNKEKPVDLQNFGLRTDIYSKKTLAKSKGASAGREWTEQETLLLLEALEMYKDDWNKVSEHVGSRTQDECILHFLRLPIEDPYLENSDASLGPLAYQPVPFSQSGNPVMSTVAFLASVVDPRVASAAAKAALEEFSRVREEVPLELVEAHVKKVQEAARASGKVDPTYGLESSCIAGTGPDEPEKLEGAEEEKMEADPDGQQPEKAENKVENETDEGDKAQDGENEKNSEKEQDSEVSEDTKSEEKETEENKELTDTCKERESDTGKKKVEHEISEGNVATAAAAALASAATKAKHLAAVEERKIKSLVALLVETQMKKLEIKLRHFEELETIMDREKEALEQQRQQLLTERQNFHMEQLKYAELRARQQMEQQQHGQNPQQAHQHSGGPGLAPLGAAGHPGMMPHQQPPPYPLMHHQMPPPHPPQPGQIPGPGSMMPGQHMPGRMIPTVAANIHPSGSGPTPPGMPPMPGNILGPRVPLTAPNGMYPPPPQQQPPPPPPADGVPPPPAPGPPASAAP
UniProt P51532: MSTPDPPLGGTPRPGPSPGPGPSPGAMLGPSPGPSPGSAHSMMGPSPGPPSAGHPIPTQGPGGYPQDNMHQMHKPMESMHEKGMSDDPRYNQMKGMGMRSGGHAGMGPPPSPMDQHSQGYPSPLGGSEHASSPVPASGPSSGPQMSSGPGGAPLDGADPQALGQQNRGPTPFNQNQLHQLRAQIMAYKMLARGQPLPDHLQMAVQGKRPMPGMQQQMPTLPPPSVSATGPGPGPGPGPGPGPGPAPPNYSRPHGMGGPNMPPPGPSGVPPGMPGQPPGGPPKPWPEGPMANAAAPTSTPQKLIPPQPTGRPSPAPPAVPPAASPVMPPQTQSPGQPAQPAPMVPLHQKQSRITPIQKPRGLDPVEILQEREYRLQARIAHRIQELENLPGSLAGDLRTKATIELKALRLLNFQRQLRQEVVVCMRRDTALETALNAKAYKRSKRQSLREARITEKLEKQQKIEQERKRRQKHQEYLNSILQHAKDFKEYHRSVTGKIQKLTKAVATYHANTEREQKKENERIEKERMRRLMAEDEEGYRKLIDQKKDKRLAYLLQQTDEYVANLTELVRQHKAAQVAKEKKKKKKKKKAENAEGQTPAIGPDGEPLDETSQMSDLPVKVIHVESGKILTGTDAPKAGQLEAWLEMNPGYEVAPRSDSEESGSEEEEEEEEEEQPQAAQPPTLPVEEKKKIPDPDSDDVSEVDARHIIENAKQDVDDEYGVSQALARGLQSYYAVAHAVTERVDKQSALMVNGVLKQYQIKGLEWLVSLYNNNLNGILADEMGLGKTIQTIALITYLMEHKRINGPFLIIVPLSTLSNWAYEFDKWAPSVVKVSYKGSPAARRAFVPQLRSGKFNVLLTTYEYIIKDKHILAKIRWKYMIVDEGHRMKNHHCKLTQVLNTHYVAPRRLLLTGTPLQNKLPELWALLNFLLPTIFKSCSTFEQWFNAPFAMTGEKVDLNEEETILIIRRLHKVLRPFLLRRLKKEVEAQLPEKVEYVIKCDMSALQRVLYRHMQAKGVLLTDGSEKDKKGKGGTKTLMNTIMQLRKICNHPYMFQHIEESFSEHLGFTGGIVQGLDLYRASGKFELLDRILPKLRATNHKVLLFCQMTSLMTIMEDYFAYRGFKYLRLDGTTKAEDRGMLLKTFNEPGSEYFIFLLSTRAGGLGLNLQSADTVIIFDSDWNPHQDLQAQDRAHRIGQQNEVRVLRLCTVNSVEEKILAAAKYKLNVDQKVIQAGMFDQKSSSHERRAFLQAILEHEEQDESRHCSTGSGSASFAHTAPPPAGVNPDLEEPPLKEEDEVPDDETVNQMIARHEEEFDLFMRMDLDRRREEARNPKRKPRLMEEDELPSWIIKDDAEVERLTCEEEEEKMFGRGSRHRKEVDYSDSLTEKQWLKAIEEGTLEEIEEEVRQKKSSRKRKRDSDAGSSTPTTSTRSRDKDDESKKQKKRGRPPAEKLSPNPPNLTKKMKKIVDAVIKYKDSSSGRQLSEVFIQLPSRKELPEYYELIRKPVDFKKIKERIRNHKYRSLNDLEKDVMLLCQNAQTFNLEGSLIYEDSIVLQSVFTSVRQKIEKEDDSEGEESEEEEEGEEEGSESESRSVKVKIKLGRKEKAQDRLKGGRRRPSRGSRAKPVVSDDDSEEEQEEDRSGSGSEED
UniProt Q9H8M2: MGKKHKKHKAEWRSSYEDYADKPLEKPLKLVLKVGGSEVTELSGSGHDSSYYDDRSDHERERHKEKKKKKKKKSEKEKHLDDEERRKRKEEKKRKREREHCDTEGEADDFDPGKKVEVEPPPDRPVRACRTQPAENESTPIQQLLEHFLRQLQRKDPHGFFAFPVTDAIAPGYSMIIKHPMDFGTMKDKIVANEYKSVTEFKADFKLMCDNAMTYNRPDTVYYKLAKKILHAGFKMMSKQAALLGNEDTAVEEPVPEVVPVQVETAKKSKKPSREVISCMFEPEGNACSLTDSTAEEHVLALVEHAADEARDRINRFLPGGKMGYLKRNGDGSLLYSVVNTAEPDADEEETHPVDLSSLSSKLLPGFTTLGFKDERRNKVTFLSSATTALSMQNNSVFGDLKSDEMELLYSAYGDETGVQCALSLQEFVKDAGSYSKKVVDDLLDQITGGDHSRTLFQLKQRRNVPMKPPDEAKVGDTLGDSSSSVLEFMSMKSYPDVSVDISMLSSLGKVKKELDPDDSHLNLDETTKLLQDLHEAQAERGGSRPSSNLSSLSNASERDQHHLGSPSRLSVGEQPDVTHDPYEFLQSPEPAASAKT
UniProt O96019: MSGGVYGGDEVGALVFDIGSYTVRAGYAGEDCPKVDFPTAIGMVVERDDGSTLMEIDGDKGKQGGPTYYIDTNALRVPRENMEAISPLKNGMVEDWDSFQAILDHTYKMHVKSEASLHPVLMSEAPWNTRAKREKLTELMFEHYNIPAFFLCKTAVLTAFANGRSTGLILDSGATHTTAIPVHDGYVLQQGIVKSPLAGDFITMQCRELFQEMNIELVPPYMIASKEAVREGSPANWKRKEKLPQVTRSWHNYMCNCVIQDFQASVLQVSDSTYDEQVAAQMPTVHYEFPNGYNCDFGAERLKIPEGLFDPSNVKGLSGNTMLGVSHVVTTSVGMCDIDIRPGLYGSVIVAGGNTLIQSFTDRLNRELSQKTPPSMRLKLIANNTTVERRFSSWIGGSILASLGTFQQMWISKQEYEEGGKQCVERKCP
UniProt Q9NZM4: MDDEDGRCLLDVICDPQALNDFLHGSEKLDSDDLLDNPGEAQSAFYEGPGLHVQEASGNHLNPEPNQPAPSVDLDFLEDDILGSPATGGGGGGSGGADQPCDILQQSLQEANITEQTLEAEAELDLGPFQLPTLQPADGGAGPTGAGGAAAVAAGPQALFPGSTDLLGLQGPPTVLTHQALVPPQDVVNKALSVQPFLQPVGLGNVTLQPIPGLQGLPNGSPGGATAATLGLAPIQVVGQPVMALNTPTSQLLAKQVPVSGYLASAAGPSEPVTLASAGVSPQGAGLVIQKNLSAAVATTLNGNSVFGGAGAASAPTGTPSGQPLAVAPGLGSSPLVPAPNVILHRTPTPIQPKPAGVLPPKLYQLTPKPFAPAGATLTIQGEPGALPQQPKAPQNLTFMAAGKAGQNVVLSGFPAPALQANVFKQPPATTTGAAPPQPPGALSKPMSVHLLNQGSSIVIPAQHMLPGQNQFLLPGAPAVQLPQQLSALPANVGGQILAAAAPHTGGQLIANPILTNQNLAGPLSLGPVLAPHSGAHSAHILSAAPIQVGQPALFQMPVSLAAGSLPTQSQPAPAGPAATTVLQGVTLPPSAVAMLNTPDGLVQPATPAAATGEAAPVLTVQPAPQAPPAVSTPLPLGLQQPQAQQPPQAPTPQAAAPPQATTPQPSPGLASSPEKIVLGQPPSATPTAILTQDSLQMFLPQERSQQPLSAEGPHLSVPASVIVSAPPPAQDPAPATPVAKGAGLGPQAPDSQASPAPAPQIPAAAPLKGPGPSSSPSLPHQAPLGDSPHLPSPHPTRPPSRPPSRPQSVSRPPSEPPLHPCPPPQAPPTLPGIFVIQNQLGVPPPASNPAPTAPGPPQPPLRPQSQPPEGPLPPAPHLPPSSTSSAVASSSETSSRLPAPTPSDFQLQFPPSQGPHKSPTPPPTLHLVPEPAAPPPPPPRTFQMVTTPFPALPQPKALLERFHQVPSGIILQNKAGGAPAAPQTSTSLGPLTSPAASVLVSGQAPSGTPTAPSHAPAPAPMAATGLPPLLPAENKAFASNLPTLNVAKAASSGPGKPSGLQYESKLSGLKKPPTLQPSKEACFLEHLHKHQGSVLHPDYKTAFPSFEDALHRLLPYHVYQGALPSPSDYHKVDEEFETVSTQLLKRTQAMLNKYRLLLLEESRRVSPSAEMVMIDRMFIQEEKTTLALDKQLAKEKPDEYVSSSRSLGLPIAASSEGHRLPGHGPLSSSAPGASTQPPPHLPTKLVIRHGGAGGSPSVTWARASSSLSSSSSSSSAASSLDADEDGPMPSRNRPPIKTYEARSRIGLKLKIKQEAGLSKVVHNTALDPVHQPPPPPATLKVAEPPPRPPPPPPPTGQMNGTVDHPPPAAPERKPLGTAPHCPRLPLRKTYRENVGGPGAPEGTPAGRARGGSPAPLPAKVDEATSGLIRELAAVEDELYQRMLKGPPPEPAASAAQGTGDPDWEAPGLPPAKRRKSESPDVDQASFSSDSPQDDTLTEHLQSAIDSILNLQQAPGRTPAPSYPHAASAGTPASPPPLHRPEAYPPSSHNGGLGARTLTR
UniProt Q12824: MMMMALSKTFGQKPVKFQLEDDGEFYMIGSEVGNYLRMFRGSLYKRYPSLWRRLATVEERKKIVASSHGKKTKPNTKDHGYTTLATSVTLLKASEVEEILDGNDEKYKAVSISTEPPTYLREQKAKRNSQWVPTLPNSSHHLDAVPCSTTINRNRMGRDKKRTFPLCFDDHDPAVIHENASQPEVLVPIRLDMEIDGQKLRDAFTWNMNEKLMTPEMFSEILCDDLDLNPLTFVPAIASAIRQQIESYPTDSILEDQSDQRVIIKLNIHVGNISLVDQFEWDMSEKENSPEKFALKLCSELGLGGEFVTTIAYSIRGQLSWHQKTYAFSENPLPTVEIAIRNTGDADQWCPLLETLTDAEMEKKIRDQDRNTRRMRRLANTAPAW
UniProt Q96GM5: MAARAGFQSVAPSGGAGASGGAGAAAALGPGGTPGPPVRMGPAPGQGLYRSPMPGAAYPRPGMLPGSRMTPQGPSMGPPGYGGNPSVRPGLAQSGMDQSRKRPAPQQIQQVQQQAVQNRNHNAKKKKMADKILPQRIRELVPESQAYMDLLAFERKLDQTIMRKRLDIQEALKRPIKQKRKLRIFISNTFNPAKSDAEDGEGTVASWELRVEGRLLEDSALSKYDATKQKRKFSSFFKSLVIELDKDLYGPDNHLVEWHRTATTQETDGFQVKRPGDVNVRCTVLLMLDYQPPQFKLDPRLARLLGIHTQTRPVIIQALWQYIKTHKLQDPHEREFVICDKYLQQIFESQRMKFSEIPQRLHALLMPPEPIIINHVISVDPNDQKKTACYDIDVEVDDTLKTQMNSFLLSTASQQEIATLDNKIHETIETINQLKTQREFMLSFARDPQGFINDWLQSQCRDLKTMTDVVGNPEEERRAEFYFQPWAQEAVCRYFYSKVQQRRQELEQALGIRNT

Experiment [1] has as its target SMARCC1 (BAF155) (human (endogenous in G401)) (UniProt Q92922). Briefly: co-IP; IP of endogenous BRD9, SMARCC1 or SMARCA4 from nuclear extract (150 mM salt, overnight at 4 °C, Protein G Dynabeads, RIPA washes) and western blot; G401 (without or with BRD9 knockdown, without or with SMARCB1 addback) and H1299 (BRD9 knockdown, SMARCB1 knockdown or both). A general note: In western blotting, separated proteins are transferred to a membrane and probed.

Experiment [2] concerns the target SMARCA4 (BRG1) (human (endogenous in G401)) (UniProt P51532). The description is as above.
Experiment [3] concerns the target Bromodomain-containing protein 9 (BRD9) (human (endogenous in G401)) (UniProt Q9H8M2). Description: co-sedimentation; glycerol sedimentation: 1 mg nuclear extract on a 10-35% glycerol gradient, 40,000 r.p.m., 16 h, 4 °C, fractions western blotted; G401 without or with SMARCB1 re-expression, HEK293T parental or SMARCB1 KO, G401 with control or BRD9 CRISPR-Cas9.
The target is the same in experiment [4]. Description: immuno-depletion; immuno-depletion of BRD9 in G401 cells without and with SMARCB1 re-expression.

These are yes or no findings as the source states them, for the method shown. For some of these results: In cells and extracts the contact can be indirect. Some binding calls cover weakened binding; strength is not graded here.

“ACTL6A (BAF53A) (from UniProt O96019 1-429)”: in experiment [1], the binding entry is reported as “binds”.

On to “Bromodomain-containing protein 9 (BRD9) (from UniProt Q9H8M2 1-597)”, for which the binding entry in experiment [2] and in experiment [1] was “binds” in each case.

On to “GLTSCR1 (also known as BICRA, BRD4 Interacting Chromatin-Remodeling Complex Associated Protein) (from UniProt Q9NZM4 1-1560)”, for which the binding result in experiment [3] is “binds”.

For “SMARCA4 (BRG1) (from UniProt P51532 1-1647)”, the binding result in experiment [3] and in experiment [4] was “binds” in each case.

Take “SMARCB1, endogenous in H1299 (from UniProt Q12824 1-385)”: the binding result in experiment [1] is “binds”.

On to “SMARCC1 (BAF155) (from UniProt Q92922 1-1105)”, for which, in experiment [3], the binding result is recorded as “binds”.

For “SMARCD1 (BAF60A) (from UniProt Q96GM5 1-515)”, the binding result in experiment [4] and in experiment [1] was “binds” each time.
